Reference: paper doi:10.1101/2025.02.01.633781

By UniProt entry, the sequences of proteins in these tests, tags left out. Where a name states a change or a piece, a line headed by the entry shows the natural chain unless it says otherwise.
UniProt P35637: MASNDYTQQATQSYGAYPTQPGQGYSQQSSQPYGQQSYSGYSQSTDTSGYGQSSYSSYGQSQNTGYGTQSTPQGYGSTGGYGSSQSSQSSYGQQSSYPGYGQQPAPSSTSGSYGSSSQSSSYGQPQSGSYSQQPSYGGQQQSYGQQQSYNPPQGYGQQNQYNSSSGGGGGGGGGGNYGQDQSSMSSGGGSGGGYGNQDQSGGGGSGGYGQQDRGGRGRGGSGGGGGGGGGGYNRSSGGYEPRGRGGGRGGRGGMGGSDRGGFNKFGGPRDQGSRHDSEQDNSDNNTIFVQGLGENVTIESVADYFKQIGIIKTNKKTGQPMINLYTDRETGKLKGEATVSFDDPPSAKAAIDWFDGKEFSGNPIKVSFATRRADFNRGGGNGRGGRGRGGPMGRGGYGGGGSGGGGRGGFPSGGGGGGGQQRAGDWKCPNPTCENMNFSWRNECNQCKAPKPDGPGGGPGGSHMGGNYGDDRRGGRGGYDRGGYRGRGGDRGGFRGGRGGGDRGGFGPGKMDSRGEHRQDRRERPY

How the values were obtained:
[1] = system: YTHDF1 (Active Motif #31608); assay: EMSA; details: YTHDF1 0.64 uM, RNA 250 nM, positive control; m6A at positions 3, 9, 15, 22, 29
GFP-FUS = GFP-FUS (UniProt P35637); assay: confocal nanoscanning; details: cell lysate; protein in a lysate after overexpression

Row | Sequence | binding result [1] | binding result (GFP-FUS)
1 | GGACUCGGACUUGGACUCUGGACUUUGGAC [4xDRACH-m6A] | binds | 
2 | GGACUCGGACUUGGACUCUGGACUUUGGAC [4xDRACH] |  | binds

The exact form of at least one protein or probe is not confirmed. For some assays here: At least one result comes from cells or an extract, where the contact may be indirect. For some assays here: At least one verdict rests on a figure or table, not on a statement of the authors.
